Reference: PMC11164484
These are yes or no findings as the source states them, for the method shown. Binding seen in cells or lysates may run through a third protein. Some binding calls cover weakened binding; strength is not graded here.

Target: T1, Crystallin Alpha B (CRYAB) (human (endogenous in BMSCs)) (UniProt P02511)
T1 sequence: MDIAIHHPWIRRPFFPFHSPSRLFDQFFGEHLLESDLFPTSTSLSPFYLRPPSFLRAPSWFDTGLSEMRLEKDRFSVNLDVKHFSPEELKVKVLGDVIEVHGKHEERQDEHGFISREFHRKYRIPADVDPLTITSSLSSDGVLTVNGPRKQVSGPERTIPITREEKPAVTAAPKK
Experiment: co-IP; co-IP in BMSCs with CRYAB antibody or FTH1 antibody for immunoprecipitation, Western blot detection

binding: binds
Substance: ferritin heavy chain 1 (FTH1) (from UniProt P02794 1-183)
